Drawing on patent US20050113284A1, “Drug for regenerating tissue and vessel and method therefor” (priority 2001, published 2005), this text covers binding for one molecule.

By UniProt entry, the sequences of proteins in these tests, tags left out. Residues count along the entry.
UniProt P16056, residues 1298-1379: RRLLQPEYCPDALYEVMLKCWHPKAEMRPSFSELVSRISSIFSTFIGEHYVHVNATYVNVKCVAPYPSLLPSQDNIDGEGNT

No constants are given. Whether binding was seen depends on the method and setting. Some results given as binding are weak or reduced against the parent protein; the word gives no strength.

This experiment has as its target mouse HGF receptor (yeast two-hybrid constructs) (mouse) (UniProt P16056). Description: yeast two-hybrid.

B1: mouse MERMUC (yeast two-hybrid constructs) (protein)
chain: TAALFTSEILTLPPPTEAKPIFPETTSLSGILSTAGTPALATTLEGTVSTSAITESETAVAQTLTSVGTSVTVRRNPLENTSTLSIETQSHTEVLGTITVPMVAGSTMGETASFVSFTALDSSSLSVVVTTESSATSETLTTGNTTNSSFLTESHPPFSIYSTTASTSKNPNITLTKTTASPKPPTHPTTSASTAWIRKTTKHDPGEDGGFLLVRLTVASPKDLTEHNAREKLMNQLRRELHARMPLVHMSFLSIRRG
Regarding B1, the binding entry is “binds”.
